These are literature values, as cited in US6017948A, “Water-miscible pharmaceutical compositions” (Supergen, Inc., priority 1998, dated 2000).

For the compound `CC(=O)O[C@H]1C(=O)[C@@]2(C)[C@H]([C@H](OC(=O)c3ccccc3)[C@]3(O)C[C@H](OC(=O)[C@H](O)[C@@H](NC(=O)c4ccccc4)c4ccccc4)C(C)=C1C3(C)C)[C@]1(OC(C)=O)CO[C@@H]1C[C@@H]2O` [paclitaxel], the solubility in water entry was “less than 0.01 mg/mL”.
